According to paper PMC9372576:
These are yes or no findings as the source states them, for the method shown. In cells and extracts the contact can be indirect. Binding can be weak; no strength is given. Each block holds one binder with its values, some of them ahead of it.

Sequences of proteins named here, by UniProt entry; tags and fusion partners are left off. A change or cut given only in a name is not applied to a line headed by its entry.
UniProt Q9HI16: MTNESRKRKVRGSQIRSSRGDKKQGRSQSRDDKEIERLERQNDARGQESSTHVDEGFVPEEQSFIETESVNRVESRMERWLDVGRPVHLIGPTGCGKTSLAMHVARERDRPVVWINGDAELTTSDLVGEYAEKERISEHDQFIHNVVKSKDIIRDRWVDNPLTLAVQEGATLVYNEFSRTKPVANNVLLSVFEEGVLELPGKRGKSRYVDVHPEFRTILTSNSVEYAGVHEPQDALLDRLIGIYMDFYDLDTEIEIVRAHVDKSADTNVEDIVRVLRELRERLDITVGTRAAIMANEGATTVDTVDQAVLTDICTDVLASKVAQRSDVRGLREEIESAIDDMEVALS

Molecular target: CBDN (Halobacterium salinarum) (UniProt Q9HI16)
Experiment: pull-down; CBD-tagged bait and one untagged prey co-produced in Hfx. volcanii CBDX/Y transformants; lysate in 2.5 M KCl buffer pH 8.0 bound to cellulose (Avicel), six washes, elution with ethylene glycol, Western analysis with Gvp antisera

binding: binds
B1: GvpC (protein, UniProt P24574 1-382)
chain: MSVTDKRDEMSTARDKFAESQQEFESYADEFAADITAKQDDVSDLVDAITDFQAEMTNTTDAFHTYGDEFAAEVDHLRADIDAQRDVIREMQDAFEAYADIFATDIADKQDIGNLLAAIEALRTEMNSTHGAFEAYADDFAADVAALRDISDLVAAIDDFQEEFIAVQDAFDNYAGDFDAEIDQLHAAIADQHDSFDATADAFAEYRDEFYRIEVEALLEAINDFQQDIGDFRAEFETTEDAFVAFARDFYGHEITAEEGAAEAEAEPVEADADVEAEAEVSPDEAGGESAGTEEEETEPAEVETAAPEVEGSPADTADEAEDTEAEEETEEEAPEDMVQCRVCGEYYQAITEPHLQTHDMTIQEYRDEYGEDVPLRPDDKT

binding: binds
B2: GvpO (protein, UniProt O51968 1-119)
chain: MADPANDRSEREEGGEDDETPPASDGNPSPSANSFTLSNAQTRAREAAQDLLEHQFEGMIKAESNDEGWRTVVEVVERNAVPDTQDIIGRYEITLDGTGDVTGYELLERYRRGDMKEEL

binding: binds
B3: GvpA (protein, UniProt P08958 1-76)
chain: MAQPDSSGLAEVLDRVLDKGVVVDVWARVSLVGIEILTVEARVVAASVDTFLHYAEEIAKIEQAELTAGAEAAPEA
